{"source": "the supplement of paper PMC7024190", "note": "Counter-ions that a name gives are not always drawn. The list shows a part of the results. This data set is noisy: repeats of one test often differ as much as different tests do.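 Human embryonic kidney cells were transiently transfected with a plasmid bearing a Renilla luciferase gene under the HSV-TK promoter. This first-round screen tests roughly ten thousand compounds for ones that increase reporter output.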"}
{"tested_on": "HEK 293FT", "assay": "log relative Renilla luciferase luminescence (reporter expression vs reference, reference not stated) (log (base not stated)); higher = higher recombinant reporter expression", "details": "10 µM; time after transfection 48 h"}
{"smiles": "CNC(=O)c1cc2c(cn1)[nH]c1ccccc12", "log": -0.127}
{"smiles": "CN1CCC[C@@H]1Cc1c[nH]c2ccc(CCS(=O)(=O)c3ccccc3)cc12", "note": "[Eletriptan hydrobromide]", "log": 0.188}
{"smiles": "Cc1cc(C)c(/C=C2\\C(=O)Nc3ccccc32)[nH]1", "log": 0.0616}
{"smiles": "OC[C@H]1O[C@@H](n2cnc3c(NC4CCCC4)ncnc32)[C@H](O)[C@@H]1O", "note": "[N6-Cyclopentyladenosine]", "log": -0.032}
{"smiles": "COc1ccc(CN(CCN(C)C)c2ccccn2)cc1", "note": "[Mepyramine maleate]", "log": 0.00106}
{"smiles": "Cc1c[nH]c(=O)n(CCCN2CCN(c3ccccc3OCC(F)(F)F)CC2)c1=O", "log": 0.0032}
{"smiles": "Nc1ncn([C@H]2C[C@H](O)[C@@H](CO)O2)c(=O)n1", "note": "[Decitabine]", "log": 0.0697}
{"smiles": "CC1=C(/C=C/C(C)=C/C=C/C(C)=C/C(=O)Nc2ccc(O)cc2)C(C)(C)CCC1", "note": "[Fenretinide]", "log": 0.034}
{"smiles": "Cc1[nH]c(/C=C2\\C(=O)Nc3ccc(S(=O)(=O)Cc4c(Cl)cccc4Cl)cc32)c(C)c1C(=O)N1CCC[C@@H]1CN1CCCC1", "log": -0.104}
{"smiles": "CCCCn1c(=O)c2[nH]c(C34CC5CC(CC3C5)C4)nc2n(CCCO)c1=O", "log": -0.0142}
{"smiles": "O=C(O)c1cc(=O)c2ccccc2[nH]1", "note": "[Kynurenic acid]", "log": -0.302}
{"smiles": "NCCCCNCCCN", "note": "[Spermidine trihydrochloride]", "log": 0.0496}
{"smiles": "COc1ccc(C(=O)Nc2sc3c(c2C(N)=O)CCCC3)cc1OC", "log": -0.126}
{"smiles": "Cc1cc(C)cc(C(=O)N(C)[C@H](Cc2ccc(-c3ccccc3)cc2)C(=O)N[C@@H](Cc2c[nH]c3ccccc23)C(=O)O)c1", "log": 0.191}
{"smiles": "O=S1(=O)c2cccc3cccc(c23)N1CCCN1CCN(c2ccc(F)cc2)CC1", "note": "[Fananserin]", "log": -0.04}
{"smiles": "CCO/C(O)=C1\\C(C)=NC(c2ccccc2)=C(C(=O)OCc2ccc([N+](=O)[O-])cc2)C1C#Cc1ccccc1", "note": "(centres undefined)", "log": 0.103}
{"smiles": "C[C@H](NC(=O)/C(C#N)=C/c1ccc(O)c(O)c1)c1ccccc1", "note": "[Tyrphostin B44, (+) enantiomer]", "log": 0.121}
{"smiles": "CCC(=O)NC1CCc2cccc(OC)c2C1", "note": "(centres undefined)", "log": -0.0536}
{"smiles": "COc1cccc2c1C(=O)c1c(O)c3c(c(O)c1C2=O)C[C@@](O)(C(=O)CO)C[C@@H]3O[C@H]1C[C@H](N)[C@H](O)[C@H](C)O1", "note": "[Doxorubicin hydrochloride]", "log": -0.984}
{"smiles": "CSc1nc(NC2CCCC2)c([N+](=O)[O-])c(NC2CCCC2)n1", "log": -0.0175}
{"smiles": "CN(C(=O)CCCOc1ccc2[nH]c(=O)ccc2c1)C1CCCCC1", "note": "[Cilostamide]", "log": 0.0515}
{"smiles": "C[C@]12CC[C@@H]3c4ccc(O)cc4C[C@@H](CCCCCCCCC[S+]([O-])CCCC(F)(F)C(F)(F)F)[C@H]3[C@@H]1CC[C@@H]2O", "note": "(some centres undefined)", "log": -0.0811}
{"smiles": "CC(=N)NCc1cccc(CN)c1", "note": "[1400W dihydrochloride]", "log": 0.0534}
{"smiles": "CC1=C(/C=C/C(C)=C/C=C/C(C)=C/C(=O)O)C(C)(C)CCC1", "note": "[Retinoic acid]", "log": 0.0827}
{"smiles": "CCCCCCCC/C=C\\CCCCCCCC(=O)NCc1ccc(O)c(OC)c1", "note": "[Olvanil]", "log": -0.00758}
{"smiles": "O=c1c(-c2ccc(O)cc2)coc2cc(O)ccc12", "note": "[Daidzein]", "log": 0.108}
{"smiles": "CC1Nc2ccc(Cl)cc2S(=O)(=O)N1", "note": "(centres undefined)", "log": 0.12}
{"smiles": "CN(N=O)C(=O)N[C@@H](C=O)[C@@H](O)[C@H](O)[C@H](O)CO", "note": "[Streptozocin]", "log": 0.00465}
{"smiles": "CN(C)CCCSC(=N)N", "note": "[Dimaprit dihydrochloride]", "log": 0.036}
{"smiles": "Cc1ccc(NC(=O)c2cccc(N(C)C)c2)cc1NC(=O)c1ccc(O)cc1", "log": -0.085}
{"smiles": "COc1ccc(CCN(C)CCCN2CCc3cc(OC)c(OC)cc3CC2=O)cc1OC", "note": "[Zatebradine hydrochloride]", "log": 0.0915}
{"smiles": "CN(C)CCC1(c2ccc(Cl)cc2)Cc2ccccc2C(=O)O1", "note": "(racemic) [(±)-AC 7954 hydrochloride]", "log": -0.00193}
{"smiles": "O=C(O)C1=CCCNC1", "note": "[Guvacine hydrochloride]", "log": -0.191}
{"smiles": "C=C[C@@]1(C)CC(=O)[C@]2(O)[C@@]3(C)[C@@H](O)CCC(C)(C)[C@@H]3[C@H](O)[C@H](OC(C)=O)[C@@]2(C)O1", "note": "[Forskolin]", "log": -0.0153}
{"smiles": "Cc1cccc(CCN2CCC(C(=O)c3ccc(NS(C)(=O)=O)cc3)CC2)n1", "note": "[E-4031 dihydrochloride]", "log": 0.0999}
{"smiles": "O=C(NCCCN1CCCCCC1)C(c1ccccc1)C1CCCCC1", "note": "(centres undefined)", "log": -0.0969}
{"smiles": "N=C(CC(O)COc1ccccc1-c1ccccc1)N1CCCCC1", "note": "(centres undefined)", "log": 0.0609}
{"smiles": "CCN(CC)CCCCNc1ncc2cc(-c3c(Cl)cccc3Cl)c(NC(=O)NC(C)(C)C)nc2n1", "log": -1.42}
{"smiles": "CCCn1c(=O)c(C)cn2nc(N)nc12", "log": 0.0933}
